Reference: article PMC12393484
These are yes or no findings as the source states them, for the method shown. For some assays here: Binding seen in cells or lysates may run through a third protein. Some binding calls cover weakened binding; strength is not graded here. Values belong to the substance of their own block, whether it stands above or below them.

Sequences of proteins named here, by UniProt entry; tags and fusion partners are left off.
UniProt Q9QR71: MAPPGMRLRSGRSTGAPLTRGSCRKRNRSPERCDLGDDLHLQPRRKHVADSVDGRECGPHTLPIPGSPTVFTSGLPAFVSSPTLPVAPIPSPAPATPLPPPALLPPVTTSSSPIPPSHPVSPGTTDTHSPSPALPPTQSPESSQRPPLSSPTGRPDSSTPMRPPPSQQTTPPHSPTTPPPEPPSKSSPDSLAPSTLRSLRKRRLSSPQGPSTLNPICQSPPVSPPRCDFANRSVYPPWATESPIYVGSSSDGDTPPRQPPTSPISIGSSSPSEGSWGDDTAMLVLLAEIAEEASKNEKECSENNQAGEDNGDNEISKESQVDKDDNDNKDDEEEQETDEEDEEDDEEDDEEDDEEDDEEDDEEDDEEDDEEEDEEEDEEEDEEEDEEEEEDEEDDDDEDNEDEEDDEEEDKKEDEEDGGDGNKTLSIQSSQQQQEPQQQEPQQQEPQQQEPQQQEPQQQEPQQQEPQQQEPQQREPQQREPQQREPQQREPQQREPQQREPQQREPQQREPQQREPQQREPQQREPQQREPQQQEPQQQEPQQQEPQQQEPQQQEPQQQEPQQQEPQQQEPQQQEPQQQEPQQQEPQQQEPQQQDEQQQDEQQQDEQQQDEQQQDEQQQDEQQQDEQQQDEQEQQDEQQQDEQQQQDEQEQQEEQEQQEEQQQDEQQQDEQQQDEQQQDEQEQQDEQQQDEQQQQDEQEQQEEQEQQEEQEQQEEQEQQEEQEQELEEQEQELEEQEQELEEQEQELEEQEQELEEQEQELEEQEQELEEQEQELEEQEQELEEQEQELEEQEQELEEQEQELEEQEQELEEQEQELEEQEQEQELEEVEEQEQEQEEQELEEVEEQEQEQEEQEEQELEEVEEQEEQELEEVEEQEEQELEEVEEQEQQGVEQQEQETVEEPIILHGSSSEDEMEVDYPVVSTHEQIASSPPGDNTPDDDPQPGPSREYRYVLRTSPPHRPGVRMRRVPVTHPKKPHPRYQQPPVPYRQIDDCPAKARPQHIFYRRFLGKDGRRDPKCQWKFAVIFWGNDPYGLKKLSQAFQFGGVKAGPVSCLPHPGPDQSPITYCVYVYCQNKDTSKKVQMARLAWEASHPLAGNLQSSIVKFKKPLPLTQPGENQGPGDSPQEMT
UniProt P35713: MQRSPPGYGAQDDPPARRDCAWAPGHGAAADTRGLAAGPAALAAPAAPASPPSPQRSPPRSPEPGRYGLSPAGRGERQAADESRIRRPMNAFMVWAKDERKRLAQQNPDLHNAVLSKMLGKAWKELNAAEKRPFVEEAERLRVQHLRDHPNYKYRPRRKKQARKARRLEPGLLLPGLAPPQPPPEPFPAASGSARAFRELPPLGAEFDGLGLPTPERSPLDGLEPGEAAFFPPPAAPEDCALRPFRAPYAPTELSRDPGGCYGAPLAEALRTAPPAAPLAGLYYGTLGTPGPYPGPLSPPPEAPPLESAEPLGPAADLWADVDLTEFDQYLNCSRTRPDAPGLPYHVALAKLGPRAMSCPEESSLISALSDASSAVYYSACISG
UniProt P51532: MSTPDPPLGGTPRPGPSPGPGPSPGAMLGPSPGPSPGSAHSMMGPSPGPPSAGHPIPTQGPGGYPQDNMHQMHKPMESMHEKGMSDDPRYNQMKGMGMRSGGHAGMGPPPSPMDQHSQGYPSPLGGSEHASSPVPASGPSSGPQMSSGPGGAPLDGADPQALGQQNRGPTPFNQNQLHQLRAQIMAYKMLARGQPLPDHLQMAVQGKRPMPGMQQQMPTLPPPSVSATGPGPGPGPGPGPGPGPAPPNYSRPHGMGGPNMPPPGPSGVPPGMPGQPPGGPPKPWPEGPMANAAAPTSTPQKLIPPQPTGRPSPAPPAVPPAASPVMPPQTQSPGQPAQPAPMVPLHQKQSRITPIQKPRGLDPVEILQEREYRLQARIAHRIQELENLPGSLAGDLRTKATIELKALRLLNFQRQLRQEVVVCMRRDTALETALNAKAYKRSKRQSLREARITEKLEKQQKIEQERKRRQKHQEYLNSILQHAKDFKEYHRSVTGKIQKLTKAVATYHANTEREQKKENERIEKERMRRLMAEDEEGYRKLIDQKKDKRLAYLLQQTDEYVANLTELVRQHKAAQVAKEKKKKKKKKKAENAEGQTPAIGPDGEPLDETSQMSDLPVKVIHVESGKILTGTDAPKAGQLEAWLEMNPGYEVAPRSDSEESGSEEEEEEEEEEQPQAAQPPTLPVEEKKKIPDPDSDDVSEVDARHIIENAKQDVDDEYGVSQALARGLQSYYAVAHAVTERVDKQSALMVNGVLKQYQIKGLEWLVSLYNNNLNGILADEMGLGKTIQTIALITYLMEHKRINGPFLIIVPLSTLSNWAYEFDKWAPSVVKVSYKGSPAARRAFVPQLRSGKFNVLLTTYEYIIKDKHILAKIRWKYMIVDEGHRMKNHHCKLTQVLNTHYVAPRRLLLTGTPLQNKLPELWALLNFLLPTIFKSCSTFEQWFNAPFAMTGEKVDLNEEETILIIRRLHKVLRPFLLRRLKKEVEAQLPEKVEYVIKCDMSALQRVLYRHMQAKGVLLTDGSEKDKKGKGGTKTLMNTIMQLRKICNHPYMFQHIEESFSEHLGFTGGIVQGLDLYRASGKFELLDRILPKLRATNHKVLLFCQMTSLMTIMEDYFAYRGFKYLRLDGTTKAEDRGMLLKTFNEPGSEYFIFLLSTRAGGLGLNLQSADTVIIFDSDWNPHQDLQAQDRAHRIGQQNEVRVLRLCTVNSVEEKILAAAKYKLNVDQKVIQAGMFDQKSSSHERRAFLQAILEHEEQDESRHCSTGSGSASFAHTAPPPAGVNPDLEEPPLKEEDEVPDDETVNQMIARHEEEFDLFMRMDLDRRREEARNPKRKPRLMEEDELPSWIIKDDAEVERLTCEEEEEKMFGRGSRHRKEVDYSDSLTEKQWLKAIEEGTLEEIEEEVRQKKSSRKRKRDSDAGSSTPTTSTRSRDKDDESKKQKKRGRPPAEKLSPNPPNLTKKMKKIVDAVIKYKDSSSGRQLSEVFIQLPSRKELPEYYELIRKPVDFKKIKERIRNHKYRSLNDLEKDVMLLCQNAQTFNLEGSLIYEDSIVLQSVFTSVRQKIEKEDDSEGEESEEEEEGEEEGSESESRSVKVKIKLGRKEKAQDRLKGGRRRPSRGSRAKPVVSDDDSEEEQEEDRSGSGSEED
UniProt O14497: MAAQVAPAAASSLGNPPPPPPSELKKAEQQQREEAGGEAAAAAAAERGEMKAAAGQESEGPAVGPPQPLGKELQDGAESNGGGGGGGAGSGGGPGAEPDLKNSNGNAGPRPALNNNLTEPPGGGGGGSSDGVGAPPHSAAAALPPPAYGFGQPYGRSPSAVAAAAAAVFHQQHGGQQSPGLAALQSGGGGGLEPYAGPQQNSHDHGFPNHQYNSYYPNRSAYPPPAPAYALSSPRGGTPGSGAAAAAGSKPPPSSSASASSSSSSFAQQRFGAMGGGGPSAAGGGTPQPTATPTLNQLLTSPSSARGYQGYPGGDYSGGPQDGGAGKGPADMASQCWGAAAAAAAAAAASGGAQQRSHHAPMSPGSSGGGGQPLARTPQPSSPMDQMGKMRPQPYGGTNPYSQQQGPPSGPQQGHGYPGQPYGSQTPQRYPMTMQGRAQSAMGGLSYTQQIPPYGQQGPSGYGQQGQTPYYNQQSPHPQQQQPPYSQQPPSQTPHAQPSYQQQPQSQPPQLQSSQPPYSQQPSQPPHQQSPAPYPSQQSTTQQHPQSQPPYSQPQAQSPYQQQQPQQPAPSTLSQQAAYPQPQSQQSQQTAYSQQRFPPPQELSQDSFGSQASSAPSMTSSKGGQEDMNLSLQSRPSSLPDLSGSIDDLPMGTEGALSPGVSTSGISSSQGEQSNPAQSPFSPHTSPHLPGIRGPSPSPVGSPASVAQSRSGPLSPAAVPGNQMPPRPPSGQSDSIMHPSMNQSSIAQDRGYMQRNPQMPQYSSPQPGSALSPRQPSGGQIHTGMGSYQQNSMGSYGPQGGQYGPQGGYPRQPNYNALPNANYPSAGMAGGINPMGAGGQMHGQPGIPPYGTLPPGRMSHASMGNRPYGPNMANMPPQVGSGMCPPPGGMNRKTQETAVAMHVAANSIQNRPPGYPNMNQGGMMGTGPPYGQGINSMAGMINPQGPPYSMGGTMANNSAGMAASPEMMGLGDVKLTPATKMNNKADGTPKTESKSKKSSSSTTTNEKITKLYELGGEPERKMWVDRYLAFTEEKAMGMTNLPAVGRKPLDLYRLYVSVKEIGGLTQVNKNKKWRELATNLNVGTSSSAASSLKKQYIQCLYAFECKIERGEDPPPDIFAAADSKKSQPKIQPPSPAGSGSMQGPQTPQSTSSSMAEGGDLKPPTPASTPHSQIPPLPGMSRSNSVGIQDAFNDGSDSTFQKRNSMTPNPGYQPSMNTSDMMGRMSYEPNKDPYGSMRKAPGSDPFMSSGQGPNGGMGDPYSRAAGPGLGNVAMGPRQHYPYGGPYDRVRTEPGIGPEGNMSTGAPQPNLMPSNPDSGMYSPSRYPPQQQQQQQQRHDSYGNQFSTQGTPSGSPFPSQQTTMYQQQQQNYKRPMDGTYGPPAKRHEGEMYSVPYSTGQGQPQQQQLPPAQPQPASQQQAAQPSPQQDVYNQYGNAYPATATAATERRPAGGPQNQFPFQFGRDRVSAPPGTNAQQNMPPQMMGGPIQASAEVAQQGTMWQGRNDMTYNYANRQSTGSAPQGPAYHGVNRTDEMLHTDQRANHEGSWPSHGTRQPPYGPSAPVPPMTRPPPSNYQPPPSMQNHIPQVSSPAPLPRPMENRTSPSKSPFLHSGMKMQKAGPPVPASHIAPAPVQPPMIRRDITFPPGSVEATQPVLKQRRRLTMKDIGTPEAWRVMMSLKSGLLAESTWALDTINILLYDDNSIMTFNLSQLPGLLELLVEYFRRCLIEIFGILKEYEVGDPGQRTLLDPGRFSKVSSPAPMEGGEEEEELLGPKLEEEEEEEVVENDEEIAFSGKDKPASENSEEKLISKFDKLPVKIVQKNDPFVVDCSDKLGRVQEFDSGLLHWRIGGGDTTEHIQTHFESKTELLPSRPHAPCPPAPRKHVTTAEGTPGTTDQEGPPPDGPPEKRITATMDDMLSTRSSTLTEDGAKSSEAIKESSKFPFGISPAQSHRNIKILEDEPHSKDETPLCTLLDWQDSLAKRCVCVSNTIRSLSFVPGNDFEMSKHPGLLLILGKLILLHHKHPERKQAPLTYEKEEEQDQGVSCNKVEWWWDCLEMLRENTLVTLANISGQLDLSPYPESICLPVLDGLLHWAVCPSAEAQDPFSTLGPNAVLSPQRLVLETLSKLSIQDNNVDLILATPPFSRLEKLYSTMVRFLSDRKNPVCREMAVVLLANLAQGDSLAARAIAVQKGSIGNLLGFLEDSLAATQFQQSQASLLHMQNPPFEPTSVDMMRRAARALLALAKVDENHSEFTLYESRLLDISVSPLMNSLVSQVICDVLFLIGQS

Experiments:
[1] = biological target: KSHV Latency-Associated Nuclear Antigen (LANA) (KSHV/HHV-8 (rKSHV.219)) (UniProt Q9QR71); experiment: proximity ligation
[2] = biological target: Halo-tagged SOX18 (UniProt P35713); experiment: Number and Brightness (N&B) fluorescence fluctuation analysis; live HeLa cell nuclei with HaloJF549-SOX18, 37 °C; treated with DMSO, Trichostatin A or Actinomycin D; brightness calibrated on monomeric HaloJF549-Sox7
[3] = biological target: BRG1, ATPase subunit of the SWI/SNF chromatin-remodeling complex (human (endogenous in iSLK.219/SLK cells and primary human LECs)) (UniProt P51532); experiment: proximity ligation
[4] = biological target: ARID1A, core subunit of the SWI/SNF complex (human (endogenous in iSLK.219/SLK cells and primary human LECs)) (UniProt O14497); experiment: proximity ligation
[5] = biological target: SOX18 (endogenous) (human (endogenous in primary human dermal LECs)) (UniProt P35713); experiment: proximity ligation

Substance: SOX18 (endogenous) (from UniProt P35713 1-384)
binding [1]: binds

binding [2]: binds
Substance: Halo-tagged SOX18 (from UniProt P35713 1-384)

Substance: KSHV Latency-Associated Nuclear Antigen (LANA) (from UniProt Q9QR71 1-1129)
binding [3]: binds | binding [4]: binds

binding [5]: binds
Substance: BRG1, ATPase subunit of the SWI/SNF chromatin-remodeling complex (from UniProt P51532 1-1647)
